Whole data set: some 1,100 compounds, median “Wnt reporter firefly/Renilla luciferase ratio relative to plate median” near 1.1, cut for the highest 2% near 1.6. Only a part is listed here, and it is no random draw.
Test system: HEK293T (UBE3A T485A transfected, BAR Wnt reporter)
Assay: Wnt reporter firefly/Renilla luciferase ratio relative to plate median (fold (linear ratio)); higher = more Wnt/beta-catenin reporter activation
Conditions: 24 h
Outline: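 Each value averages four biological replicates in HEK293T cells grown at 4500 cells/well in DMEM with 10% FBS at 37°C and 5% CO2. The cells were transfected with a BAR firefly luciferase Wnt reporter, TK-Renilla and an expression plasmid, then four hours later robotically treated with the chemicals at 0.01–100 uM for 24 h. Dual-Glo luciferase signals were median-centred per plate, with the firefly/Renilla ratio reported as Wnt activity and raw Renilla as cell health.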

Compound | Wnt reporter firefly/Renilla luciferase ratio (concentration: 0.1 uM) | Wnt reporter firefly/Renilla luciferase ratio (concentration: 1 uM) | Wnt reporter firefly/Renilla luciferase ratio (concentration: 10 uM) | Wnt reporter firefly/Renilla luciferase ratio (concentration: 100 uM) | Wnt reporter firefly/Renilla luciferase ratio (concentration: 0.01 uM)
CC(C)CC(C)(O)C#CC(C)(O)CC(C)C (stereo not drawn) [2,4,7,9-Tetramethyl-5-decyne-4,7-diol] | 0.994 | 1.13 | 1.03 | 0.398 | 
COc1ccc2sc(C(=O)Nc3nnn[n-]3)c(OC(C)C)c2c1.[Na+] | 1.08 | 1.08 | 1.35 |  | 
COC(=O)c1ccc(O)cc1 [Methylparaben] | 1.14 | 1.09 | 1.36 | 0.972 | 
OC[C@H]1O[C@@](CO)(O[C@H]2O[C@H](CO)[C@@H](O)[C@H](O)[C@H]2O)[C@@H](O)[C@@H]1O [Sucrose] | 0.818 | 0.989 | 0.924 | 1.26 | 
OCC(CO)(CBr)CBr [2,2-Bis(bromomethyl)-1,3-propanediol] | 1.18 | 0.867 | 0.858 | 0.83 | 
NC(=O)c1nc(-c2cccc(-c3cc(F)ccc3OCC(F)(F)C(F)(F)F)c2)n[n-]1.O.[K+] | 1.08 | 0.937 | 0.551 |  | 
COCCOCCOC [Bis(2-methoxyethyl) ether] | 1.06 | 0.871 | 0.862 | 1.42 | 
CCCCC(CC)COC(=O)CCCCCCCCC(=O)OCC(CC)CCCC (stereo not drawn) [Bis(2-ethylhexyl) decanedioate] | 0.935 | 1.08 | 1.07 | 1.12 | 
CCCCCCCC/C=C\CCCCCCCC(=O)OC[C@@H](O)[C@H]1OC[C@H](O)[C@H]1O [Sorbitan, mono-(9Z)-9-octadecenoate] | 1.02 | 1 | 0.875 | 1.03 | 
CC(C)(C)c1csc(-c2cc3cc(OCc4ccccc4CC(=O)O)ccc3o2)n1 | 1.02 | 1.04 | 0.758 |  | 
OCCOCCOCCO [Triethylene glycol] | 0.815 | 1.04 | 1.07 | 1.32 | 
NC(N)=O | 0.93 | 1.14 | 1.14 | 1.14 | 
CC(C)C(=O)OCC(C)(C)C(OC(=O)C(C)C)C(C)C (stereo not drawn) [2,2,4-Trimethyl-1,3-pentanediol diisobutyrate] | 0.92 | 0.885 | 1.15 | 1.64 | 
c1ccc(C(O[C@@H]2CCCN(CCc3ccc4c(c3)OCO4)C2)c2ccccc2)cc1 [Zamifenacin] | 1.15 | 1.05 | 0.996 | 1.13 | 
CN(C)C(=O)Nc1ccc(Cl)c(Cl)c1 [Diuron] | 0.989 | 0.948 | 1.41 | 0.198 | 1.43
O=c1[nH]sc2ccccc12 [1,2-Benzisothiazolin-3-one] | 1.11 | 1.1 | 0.988 |  | 

Compound | Wnt reporter firefly/Renilla luciferase ratio (concentration: 0.1 uM) | Wnt reporter firefly/Renilla luciferase ratio (concentration: 1 uM) | Wnt reporter firefly/Renilla luciferase ratio (concentration: 10 uM) | Wnt reporter firefly/Renilla luciferase ratio (concentration: 100 uM) | Wnt reporter firefly/Renilla luciferase ratio (concentration: 0.01 uM)
Cn1cnc2c1c(=O)[nH]c(=O)n2C [Theobromine] | 1.3 | 1.08 | 1.06 | 0.963 | 
CCc1c(C(=O)NN2CCCCC2)nn(-c2ccc(Cl)cc2Cl)c1-c1ccc(Br)cc1 [Surinabant] | 0.958 | 0.986 | 0.432 | 0.215 | 
COc1cccc(-c2ccc(/C=C\CN3CCCCCC3)cc2Cl)c1.Cl | 1.12 | 1.1 | 1.04 | 0.826 | 
O=c1c(-c2ccc(O)cc2)coc2cc(O)cc(O)c12 [Genistein] | 1.45 | 1.16 | 0.958 | 0.631 | 1.71
OCC(CO)n1cnc(-c2ccc(F)cc2)c1-c1ccnc(Oc2ccccc2)n1 | 0.889 | 0.465 | 0.41 | 0.356 | 
CC(COCC(C)OC(=O)c1ccccc1)OC(=O)c1ccccc1 (stereo not drawn) [Di(propylene glycol) dibenzoate] | 1.25 | 1.23 | 1.18 | 1.44 | 
CC/C(=C\C(=N/O)C(N)=O)C(C)[N+](=O)[O-] (stereo not drawn) | 0.874 | 1.09 | 1.05 | 1.4 | 
CC(=O)CC(C)(C)O [Diacetone alcohol] | 0.954 | 1.16 | 1.1 | 1.13 | 
Cc1ccc(-c2cc(C(F)(F)F)nn2-c2ccc(S(N)(=O)=O)cc2)cc1 [Celecoxib] | 1.44 | 1.02 | 1.04 | 0.889 | 
CCCCCCCCCCO [1-Decanol] | 1.01 | 1.15 | 1.22 | 1.47 | 
CC(C)(C)c1cccc(C(C)(C)C)c1O [2,6-Di-tert-butylphenol] |  |  |  | 1.72 | 
COC(=O)CCCCC(=O)OC [Dimethyl adipate] | 1.03 | 1.21 | 0.848 | 1.23 | 
CC(C)(O)c1coc(S(=O)(=O)NC(=O)Nc2c3c(cc4c2CCC4)CCC3)c1 | 1.04 | 0.761 | 0.902 | 0.531 | 
O=Cc1ccccc1C=O [1,2-Benzenedicarboxaldehyde] | 1.16 | 1.01 | 1.07 | 1.18 | 
CCCCCCCCCCCCO [1-Dodecanol] | 1.03 | 1.11 | 1.12 | 1.11 | 
CC(=O)O[C@]1(C(C)=O)CC[C@H]2[C@@H]3C=C(Cl)C4=CC(=O)[C@@H]5C[C@@H]5[C@]4(C)[C@H]3CC[C@@]21C [Cyproterone acetate] | 1.13 | 1.08 | 0.97 | 0.502 | 

A different layout for part of the listing above:
Cc1ccc(-c2cc(C(F)(F)F)nn2-c2ccc(S(N)(=O)=O)cc2)cc1 [Celecoxib]
  Wnt reporter firefly/Renilla luciferase ratio (concentration: 0.1 uM): 1.44; Wnt reporter firefly/Renilla luciferase ratio (concentration: 1 uM): 1.02; Wnt reporter firefly/Renilla luciferase ratio (concentration: 10 uM): 1.04; Wnt reporter firefly/Renilla luciferase ratio (concentration: 100 uM): 0.889
CCCCCCCCCCO [1-Decanol]
  Wnt reporter firefly/Renilla luciferase ratio (concentration: 0.1 uM): 1.01; Wnt reporter firefly/Renilla luciferase ratio (concentration: 1 uM): 1.15; Wnt reporter firefly/Renilla luciferase ratio (concentration: 10 uM): 1.22; Wnt reporter firefly/Renilla luciferase ratio (concentration: 100 uM): 1.47

Source: the supplement of paper PMC9254222
